According to patent US20210380678A1:
No constants are given. Whether binding was seen depends on the method and setting. Some binding calls cover weakened binding; strength is not graded here. For some assays here: Tags and fused reporters may be left off the sequences shown.

By UniProt entry, the sequences of proteins in these tests, tags left out. Where a name states a change or a piece, a line headed by the entry shows the natural chain unless it says otherwise.
UniProt Q9ULT6: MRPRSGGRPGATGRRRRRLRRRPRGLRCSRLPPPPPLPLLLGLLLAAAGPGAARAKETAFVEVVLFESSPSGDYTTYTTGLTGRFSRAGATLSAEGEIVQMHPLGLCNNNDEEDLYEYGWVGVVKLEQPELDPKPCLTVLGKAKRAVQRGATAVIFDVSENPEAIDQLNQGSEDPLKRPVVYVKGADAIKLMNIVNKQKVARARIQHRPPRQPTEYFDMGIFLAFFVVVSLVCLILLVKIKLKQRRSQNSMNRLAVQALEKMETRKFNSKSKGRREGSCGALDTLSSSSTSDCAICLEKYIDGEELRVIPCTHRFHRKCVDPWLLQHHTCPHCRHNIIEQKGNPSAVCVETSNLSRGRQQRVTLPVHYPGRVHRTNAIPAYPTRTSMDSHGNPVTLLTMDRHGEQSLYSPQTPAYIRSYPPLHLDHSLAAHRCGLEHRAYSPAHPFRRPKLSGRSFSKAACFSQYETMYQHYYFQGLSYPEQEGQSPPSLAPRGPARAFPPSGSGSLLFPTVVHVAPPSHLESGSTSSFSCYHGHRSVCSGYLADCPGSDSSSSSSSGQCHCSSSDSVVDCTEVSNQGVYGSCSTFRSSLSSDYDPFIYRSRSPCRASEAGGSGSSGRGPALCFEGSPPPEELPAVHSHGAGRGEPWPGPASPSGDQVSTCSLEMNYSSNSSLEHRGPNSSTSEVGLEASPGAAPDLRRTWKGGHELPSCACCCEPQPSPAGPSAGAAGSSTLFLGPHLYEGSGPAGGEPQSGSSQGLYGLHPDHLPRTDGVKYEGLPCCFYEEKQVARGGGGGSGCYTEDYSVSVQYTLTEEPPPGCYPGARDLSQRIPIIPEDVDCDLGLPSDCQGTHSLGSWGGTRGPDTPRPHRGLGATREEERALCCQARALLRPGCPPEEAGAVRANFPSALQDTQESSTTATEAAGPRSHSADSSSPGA

T1: Fc portion of human IgG1-fused LGR5-ECD (R&D systems) (human) (UniProt O75473)
T1 sequence (looked up): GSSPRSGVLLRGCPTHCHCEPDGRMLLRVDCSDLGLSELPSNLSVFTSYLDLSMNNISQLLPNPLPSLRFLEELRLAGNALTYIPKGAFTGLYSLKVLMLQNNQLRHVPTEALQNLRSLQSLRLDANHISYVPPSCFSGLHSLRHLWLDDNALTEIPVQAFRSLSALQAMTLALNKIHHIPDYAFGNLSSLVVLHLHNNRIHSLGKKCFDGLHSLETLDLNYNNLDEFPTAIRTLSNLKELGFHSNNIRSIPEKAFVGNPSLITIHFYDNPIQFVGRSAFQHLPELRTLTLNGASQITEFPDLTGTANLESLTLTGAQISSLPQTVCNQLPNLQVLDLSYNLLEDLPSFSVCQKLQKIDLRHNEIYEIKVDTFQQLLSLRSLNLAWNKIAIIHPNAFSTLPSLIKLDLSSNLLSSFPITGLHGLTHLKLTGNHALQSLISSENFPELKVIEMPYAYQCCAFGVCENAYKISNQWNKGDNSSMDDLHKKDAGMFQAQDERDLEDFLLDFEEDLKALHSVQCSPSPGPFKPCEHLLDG


Columns and labels:
[1] = molecular target: human ZNRF3 extracellular domain (hZNRF3 ECD) (human) (UniProt Q9ULT6); assay: ELISA (binding specificity)
[2] = molecular target: T1, Fc portion of human IgG1-fused LGR5-ECD (R&D systems) (human); assay: BLI (Octet), LGR5-ECD-Fc on AHC sensor

Binder	binding [1]	binding [2]
028S-A09 (antibody, V domains shown) VH: QVQLVQSGAEVKKPGASVKVSCKASGYRFTSYYLHWVRQAPGQGLEWMGWMNPKSGGTNYAQKFQGRVTMTRDTSTSTVYMELSSLRSEDTAVYYCARGGRSYGYWYFDLWGRGTLVTVSS VL: EIVMTQSPATLSVSPGERATLSCRASQSVDSSYLAWYQQKPGQAPRLLIYAASARAAGIPARFSGSGSGTEFTLTISSLQSEDFAVYYCQQYYRSPPTFGQGTRLEIK	binds	–
αGFP-RSPO2-WT (anti-GFP, RSPO2 wild type) (protein) QVQLVESGGGLVQPGGSLRLSCAASGFTFSRYGMHWVRQAPGKGLEWVSGISSIGSNTYYADSVKGRFTISRDNSKNTLYLQMNSLRAEDTAVYYCARWYKTYIDVWGQGTLVTVSSGGGGSGGGGSGGGGSDIELTQPPSVSVAPGQTARISCSGDNLGKKYVYWYQQKPGQAPVLVIYGDDERPSGIPERFSGSNSGNTATLTISGTQAEDEADYYCASYDSSHILIVFGGGTKLTVLGSGGSNPICKGCLSCSKDNGCSRCQQKLFFFLRREGMRQYGECLHSCPSGYYGHRAPDMNRCARCRIENCDSCFSKDFCTKCKVGFYLHRGRCFDECPDGFAPLEETMECVEGGDYKDDDDKGSHHHHHHHH	–	binds
